No constants are given. Whether binding was seen depends on the method and setting. In cells and extracts the contact can be indirect. Here binding means that the protein was enriched with, or labelled near, the bait; the list need not be complete. No binding means not detected with the bait. Where a sequence is shown, tags or fusion partners need not be part of it. Blank lines part the entries; values can stand above or below the molecule they belong to.
Columns and labels:
FLAG-BirA*-GEMC1 (human) = target: T1, FLAG-BirA*-GEMC1 (human) (UniProt A6NCL1); assay: proximity labelling; BioID-MS: FLAG-BirA* fusions transiently expressed in AD-293 cells with 50 uM biotin; lysis in modified RIPA, benzonase; biotinylated proteins isolated on streptavidin-sepharose, trypsin, mass spectrometry, SAINTexpress; FLAG-BirA* alone as control
T1 sequence: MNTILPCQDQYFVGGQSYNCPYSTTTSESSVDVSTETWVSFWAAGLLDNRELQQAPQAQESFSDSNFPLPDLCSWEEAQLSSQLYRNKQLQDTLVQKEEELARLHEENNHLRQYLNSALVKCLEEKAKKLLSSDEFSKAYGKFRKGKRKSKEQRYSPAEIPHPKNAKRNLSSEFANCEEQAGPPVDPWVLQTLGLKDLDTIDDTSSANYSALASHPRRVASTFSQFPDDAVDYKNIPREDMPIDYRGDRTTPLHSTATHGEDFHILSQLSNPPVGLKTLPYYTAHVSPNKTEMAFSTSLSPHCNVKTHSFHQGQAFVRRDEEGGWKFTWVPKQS

Protein sequences, listed by entry. Tags and fused reporters are not part of them.
UniProt Q92793: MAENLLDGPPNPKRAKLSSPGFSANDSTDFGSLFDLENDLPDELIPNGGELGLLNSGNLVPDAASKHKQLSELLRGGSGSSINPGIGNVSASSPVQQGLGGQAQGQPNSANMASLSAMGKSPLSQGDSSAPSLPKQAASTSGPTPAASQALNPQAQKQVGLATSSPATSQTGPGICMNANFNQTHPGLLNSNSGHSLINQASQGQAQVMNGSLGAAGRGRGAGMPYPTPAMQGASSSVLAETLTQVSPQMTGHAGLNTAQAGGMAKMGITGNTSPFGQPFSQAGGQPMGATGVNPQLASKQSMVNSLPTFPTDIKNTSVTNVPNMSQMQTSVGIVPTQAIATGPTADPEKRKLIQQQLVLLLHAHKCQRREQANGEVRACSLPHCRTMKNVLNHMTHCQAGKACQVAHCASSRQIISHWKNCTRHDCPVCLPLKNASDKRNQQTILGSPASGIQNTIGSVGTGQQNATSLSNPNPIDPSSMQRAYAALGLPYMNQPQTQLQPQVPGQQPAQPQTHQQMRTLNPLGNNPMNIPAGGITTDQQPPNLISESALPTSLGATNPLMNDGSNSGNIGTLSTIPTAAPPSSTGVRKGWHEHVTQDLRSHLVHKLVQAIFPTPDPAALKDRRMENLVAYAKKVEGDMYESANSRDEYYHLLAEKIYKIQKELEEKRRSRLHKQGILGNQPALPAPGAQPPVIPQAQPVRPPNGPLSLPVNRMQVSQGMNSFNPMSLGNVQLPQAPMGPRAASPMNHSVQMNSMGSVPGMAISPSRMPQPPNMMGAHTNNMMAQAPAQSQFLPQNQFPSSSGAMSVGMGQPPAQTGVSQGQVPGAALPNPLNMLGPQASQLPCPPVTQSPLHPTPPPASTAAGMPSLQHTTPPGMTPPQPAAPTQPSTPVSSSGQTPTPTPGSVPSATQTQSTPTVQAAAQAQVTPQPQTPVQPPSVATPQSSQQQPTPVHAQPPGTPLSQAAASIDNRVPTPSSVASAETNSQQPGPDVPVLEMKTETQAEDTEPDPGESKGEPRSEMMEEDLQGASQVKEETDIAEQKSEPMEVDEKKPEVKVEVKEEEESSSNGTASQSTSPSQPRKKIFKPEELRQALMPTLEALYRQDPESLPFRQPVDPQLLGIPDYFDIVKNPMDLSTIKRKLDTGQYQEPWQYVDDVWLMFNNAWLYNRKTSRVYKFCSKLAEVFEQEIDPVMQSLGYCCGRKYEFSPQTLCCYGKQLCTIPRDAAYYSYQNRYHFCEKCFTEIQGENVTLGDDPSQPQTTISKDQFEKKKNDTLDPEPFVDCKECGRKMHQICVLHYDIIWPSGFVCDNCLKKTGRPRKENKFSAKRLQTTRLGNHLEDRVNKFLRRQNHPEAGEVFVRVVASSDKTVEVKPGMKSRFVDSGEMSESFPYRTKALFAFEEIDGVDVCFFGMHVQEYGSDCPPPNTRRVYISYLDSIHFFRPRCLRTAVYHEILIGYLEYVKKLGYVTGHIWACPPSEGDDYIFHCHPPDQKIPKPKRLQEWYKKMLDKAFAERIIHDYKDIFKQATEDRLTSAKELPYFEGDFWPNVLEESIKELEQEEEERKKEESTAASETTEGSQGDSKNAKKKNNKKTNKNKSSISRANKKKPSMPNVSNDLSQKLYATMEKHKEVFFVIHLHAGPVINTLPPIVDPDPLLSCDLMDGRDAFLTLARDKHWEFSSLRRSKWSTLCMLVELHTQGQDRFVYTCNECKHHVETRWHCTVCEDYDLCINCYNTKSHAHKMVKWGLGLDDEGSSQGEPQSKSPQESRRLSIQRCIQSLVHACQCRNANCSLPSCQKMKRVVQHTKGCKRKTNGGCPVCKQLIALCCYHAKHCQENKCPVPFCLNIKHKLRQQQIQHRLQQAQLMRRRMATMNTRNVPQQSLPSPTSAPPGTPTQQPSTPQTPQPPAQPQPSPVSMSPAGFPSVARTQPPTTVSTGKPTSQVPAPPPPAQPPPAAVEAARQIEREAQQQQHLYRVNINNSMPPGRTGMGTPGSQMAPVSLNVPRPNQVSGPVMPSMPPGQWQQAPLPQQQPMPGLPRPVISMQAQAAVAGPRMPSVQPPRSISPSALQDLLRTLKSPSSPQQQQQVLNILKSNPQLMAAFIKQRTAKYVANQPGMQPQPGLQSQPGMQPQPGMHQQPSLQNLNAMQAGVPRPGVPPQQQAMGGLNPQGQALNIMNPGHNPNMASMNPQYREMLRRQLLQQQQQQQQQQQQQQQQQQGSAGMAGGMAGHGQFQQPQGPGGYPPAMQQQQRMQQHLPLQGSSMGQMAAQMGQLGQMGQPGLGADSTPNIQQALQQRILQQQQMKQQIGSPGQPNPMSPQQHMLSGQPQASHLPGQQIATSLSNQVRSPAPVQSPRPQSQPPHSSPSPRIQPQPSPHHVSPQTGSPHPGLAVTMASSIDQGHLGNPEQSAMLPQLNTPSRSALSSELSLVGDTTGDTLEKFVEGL
UniProt Q14186: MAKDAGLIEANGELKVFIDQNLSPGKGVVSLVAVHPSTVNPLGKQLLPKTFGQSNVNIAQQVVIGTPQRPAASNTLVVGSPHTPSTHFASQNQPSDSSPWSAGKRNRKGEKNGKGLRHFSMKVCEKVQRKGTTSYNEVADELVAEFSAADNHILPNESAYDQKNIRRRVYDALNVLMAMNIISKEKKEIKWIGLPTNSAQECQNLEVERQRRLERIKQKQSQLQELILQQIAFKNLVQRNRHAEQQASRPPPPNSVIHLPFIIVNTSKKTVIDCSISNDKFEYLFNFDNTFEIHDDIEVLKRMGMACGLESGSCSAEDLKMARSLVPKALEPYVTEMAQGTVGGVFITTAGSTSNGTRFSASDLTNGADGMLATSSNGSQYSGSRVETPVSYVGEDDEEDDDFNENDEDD
UniProt P10244: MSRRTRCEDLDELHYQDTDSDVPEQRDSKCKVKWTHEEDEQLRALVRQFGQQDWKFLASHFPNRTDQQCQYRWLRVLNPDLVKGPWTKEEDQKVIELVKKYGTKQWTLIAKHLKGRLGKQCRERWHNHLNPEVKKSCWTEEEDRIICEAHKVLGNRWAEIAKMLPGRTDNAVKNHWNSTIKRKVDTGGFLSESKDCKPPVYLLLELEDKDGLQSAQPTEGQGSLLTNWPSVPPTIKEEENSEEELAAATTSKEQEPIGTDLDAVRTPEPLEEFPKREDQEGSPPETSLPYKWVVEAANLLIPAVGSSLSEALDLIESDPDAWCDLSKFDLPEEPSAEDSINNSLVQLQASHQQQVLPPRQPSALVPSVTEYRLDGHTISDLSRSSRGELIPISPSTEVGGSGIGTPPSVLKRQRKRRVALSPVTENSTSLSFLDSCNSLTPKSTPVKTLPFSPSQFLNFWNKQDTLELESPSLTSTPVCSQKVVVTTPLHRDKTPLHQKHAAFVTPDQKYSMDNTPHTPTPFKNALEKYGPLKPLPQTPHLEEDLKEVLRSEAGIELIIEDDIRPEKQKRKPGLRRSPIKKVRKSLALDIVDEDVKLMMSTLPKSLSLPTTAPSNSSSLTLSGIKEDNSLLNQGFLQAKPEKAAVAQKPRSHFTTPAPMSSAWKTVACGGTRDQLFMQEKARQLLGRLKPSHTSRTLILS
UniProt Q92769: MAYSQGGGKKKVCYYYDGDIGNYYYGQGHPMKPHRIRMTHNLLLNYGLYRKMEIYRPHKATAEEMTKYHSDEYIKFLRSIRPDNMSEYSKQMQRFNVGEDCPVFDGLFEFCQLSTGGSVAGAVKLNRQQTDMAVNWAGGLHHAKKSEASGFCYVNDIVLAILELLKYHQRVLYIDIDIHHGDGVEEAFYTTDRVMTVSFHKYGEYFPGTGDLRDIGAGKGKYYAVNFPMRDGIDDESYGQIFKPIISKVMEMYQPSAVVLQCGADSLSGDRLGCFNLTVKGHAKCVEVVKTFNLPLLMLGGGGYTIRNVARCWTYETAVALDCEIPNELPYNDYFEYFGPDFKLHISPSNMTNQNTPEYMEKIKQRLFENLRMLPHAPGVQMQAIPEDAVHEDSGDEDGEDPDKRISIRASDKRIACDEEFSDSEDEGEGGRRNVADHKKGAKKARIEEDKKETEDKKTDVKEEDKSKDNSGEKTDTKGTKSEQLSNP
UniProt Q09472: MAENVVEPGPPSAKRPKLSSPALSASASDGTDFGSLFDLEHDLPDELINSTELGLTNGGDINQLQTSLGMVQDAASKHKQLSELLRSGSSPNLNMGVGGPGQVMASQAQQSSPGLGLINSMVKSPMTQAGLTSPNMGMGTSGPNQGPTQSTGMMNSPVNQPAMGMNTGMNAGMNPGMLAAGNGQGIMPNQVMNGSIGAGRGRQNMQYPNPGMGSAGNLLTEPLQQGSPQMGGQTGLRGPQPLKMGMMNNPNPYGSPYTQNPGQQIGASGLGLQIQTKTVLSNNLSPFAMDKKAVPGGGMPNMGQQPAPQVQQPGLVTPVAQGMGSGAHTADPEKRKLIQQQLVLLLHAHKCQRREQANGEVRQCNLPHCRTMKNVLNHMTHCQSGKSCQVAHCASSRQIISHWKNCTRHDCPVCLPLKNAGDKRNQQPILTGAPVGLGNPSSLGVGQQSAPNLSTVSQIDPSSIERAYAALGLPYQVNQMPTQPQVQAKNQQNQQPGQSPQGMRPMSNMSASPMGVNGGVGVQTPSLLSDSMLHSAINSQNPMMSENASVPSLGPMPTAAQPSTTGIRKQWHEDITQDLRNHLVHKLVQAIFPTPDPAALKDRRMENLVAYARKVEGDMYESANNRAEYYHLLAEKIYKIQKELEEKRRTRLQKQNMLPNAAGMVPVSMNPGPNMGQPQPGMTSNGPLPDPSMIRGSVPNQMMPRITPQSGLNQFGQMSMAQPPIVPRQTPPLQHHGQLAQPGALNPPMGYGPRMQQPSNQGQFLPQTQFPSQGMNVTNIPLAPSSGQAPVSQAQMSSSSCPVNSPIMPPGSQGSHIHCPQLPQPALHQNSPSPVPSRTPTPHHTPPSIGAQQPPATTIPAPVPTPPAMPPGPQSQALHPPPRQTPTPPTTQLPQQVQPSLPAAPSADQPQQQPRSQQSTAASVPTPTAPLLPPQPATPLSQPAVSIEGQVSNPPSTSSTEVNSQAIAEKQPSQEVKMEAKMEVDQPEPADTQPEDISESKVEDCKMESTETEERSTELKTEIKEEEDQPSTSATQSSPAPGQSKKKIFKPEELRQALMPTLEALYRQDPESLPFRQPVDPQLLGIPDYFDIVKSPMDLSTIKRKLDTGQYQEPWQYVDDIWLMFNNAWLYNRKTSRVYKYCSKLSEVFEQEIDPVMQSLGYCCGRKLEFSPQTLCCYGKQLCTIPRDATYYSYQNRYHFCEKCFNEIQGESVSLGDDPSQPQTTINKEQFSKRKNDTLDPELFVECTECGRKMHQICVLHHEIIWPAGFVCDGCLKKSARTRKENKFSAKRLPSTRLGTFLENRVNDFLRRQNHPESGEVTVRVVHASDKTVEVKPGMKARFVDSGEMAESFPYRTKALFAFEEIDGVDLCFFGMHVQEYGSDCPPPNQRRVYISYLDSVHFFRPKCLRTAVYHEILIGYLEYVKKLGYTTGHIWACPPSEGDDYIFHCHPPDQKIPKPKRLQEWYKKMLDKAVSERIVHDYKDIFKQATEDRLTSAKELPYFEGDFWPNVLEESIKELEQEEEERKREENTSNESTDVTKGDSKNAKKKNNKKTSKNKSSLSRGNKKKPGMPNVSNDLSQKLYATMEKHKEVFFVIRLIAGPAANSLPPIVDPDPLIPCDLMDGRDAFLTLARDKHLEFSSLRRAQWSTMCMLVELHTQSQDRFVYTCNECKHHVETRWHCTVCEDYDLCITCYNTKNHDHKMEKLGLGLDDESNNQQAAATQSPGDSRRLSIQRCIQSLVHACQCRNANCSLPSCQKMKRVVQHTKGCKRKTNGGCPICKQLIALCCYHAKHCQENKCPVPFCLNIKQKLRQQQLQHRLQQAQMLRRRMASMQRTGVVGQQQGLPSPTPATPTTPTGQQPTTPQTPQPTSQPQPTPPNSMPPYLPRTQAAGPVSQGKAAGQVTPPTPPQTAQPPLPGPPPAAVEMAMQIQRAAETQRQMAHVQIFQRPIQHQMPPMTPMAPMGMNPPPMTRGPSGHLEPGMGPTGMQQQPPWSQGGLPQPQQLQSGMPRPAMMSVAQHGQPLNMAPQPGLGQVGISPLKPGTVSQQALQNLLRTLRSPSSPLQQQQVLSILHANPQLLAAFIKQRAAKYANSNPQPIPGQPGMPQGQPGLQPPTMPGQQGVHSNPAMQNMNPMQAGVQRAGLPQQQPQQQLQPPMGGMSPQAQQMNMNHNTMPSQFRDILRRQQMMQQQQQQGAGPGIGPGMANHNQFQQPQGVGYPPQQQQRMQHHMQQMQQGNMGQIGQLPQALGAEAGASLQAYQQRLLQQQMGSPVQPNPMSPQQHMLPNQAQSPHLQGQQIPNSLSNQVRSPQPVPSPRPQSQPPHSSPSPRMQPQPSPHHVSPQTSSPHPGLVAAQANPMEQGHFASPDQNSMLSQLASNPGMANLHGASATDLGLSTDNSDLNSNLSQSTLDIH

[1] = target: T2, FLAG-BirA*-MCIDAS (human) (UniProt D6RGH6); assay: as above
T2 sequence: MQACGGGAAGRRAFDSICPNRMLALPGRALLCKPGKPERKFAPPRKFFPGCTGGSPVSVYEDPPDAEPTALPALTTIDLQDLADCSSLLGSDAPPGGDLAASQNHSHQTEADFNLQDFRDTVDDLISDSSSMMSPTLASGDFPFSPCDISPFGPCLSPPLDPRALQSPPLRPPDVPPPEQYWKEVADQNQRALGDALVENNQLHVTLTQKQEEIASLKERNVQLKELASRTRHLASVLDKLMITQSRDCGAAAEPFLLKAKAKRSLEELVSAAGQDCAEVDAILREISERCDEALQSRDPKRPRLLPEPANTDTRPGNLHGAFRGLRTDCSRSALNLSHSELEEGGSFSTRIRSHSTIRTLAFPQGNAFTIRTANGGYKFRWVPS

binding (FLAG-BirA*-GEMC1 (human)): binds
Molecule: ARNT (from UniProt P27540 1-789)

binding (FLAG-BirA*-GEMC1 (human)): binds
Molecule: Aryl hydrocarbon receptor (AHR) (from UniProt P35869 11-848)

binding [1]: binds
Molecule: BICRA (from UniProt Q9NZM4 1-1560)

binding (FLAG-BirA*-GEMC1 (human)): binds | binding [1]: binds
Molecule: CBP (from UniProt Q92793 1-2442)

binding [1]: binds
Molecule: CDC20 (from UniProt Q12834 1-499)

binding (FLAG-BirA*-GEMC1 (human)): binds
Molecule: Cyclin A (CCNA2) (from UniProt P20248 1-432)

binding (FLAG-BirA*-GEMC1 (human)): binds | binding [1]: binds
Molecule: DP1 (TFDP1) (from UniProt Q14186 1-410)

binding (FLAG-BirA*-GEMC1 (human)): binds | binding [1]: binds
Molecule: E2F3 (from UniProt O00716 1-465)

binding (FLAG-BirA*-GEMC1 (human)): binds | binding [1]: binds
Molecule: E2F4 (from UniProt Q16254 1-413)

binding (FLAG-BirA*-GEMC1 (human)): binds | binding [1]: binds
Molecule: E2F5 (from UniProt Q15329 1-346)

binding (FLAG-BirA*-GEMC1 (human)): binds | binding [1]: binds
Molecule: LIN9 (from UniProt Q5TKA1 1-542)

binding (FLAG-BirA*-GEMC1 (human)): binds | binding [1]: binds
Molecule: LIN52 (from UniProt Q52LA3 1-112)

binding (FLAG-BirA*-GEMC1 (human)): binds | binding [1]: binds
Molecule: LIN54 (from UniProt Q6MZP7 1-749)

binding (FLAG-BirA*-GEMC1 (human)): binds | binding [1]: binds
Molecule: MYB-B (MYBL2) (from UniProt P10244 1-700)

binding [1]: binds
Molecule: PLK1 (from UniProt P53350 1-603)

binding (FLAG-BirA*-GEMC1 (human)): binds | binding [1]: binds
Molecule: SMARCA4 (BRG1) (from UniProt P51532 1-1647)

binding (FLAG-BirA*-GEMC1 (human)): binds | binding [1]: binds
Molecule: TRRAP (from UniProt Q9Y4A5 1-3859)

binding (FLAG-BirA*-GEMC1 (human)): no binding | binding [1]: no binding
Molecule: histone deacetylase 1 (from UniProt Q13547 1-482)

binding (FLAG-BirA*-GEMC1 (human)): no binding | binding [1]: no binding
Molecule: histone deacetylase 2 (from UniProt Q92769 1-488)

binding (FLAG-BirA*-GEMC1 (human)): binds | binding [1]: binds
Molecule: p300 (from UniProt Q09472 1-2414)

binding (FLAG-BirA*-GEMC1 (human)): binds
B1: AIP (protein, UniProt O00170 1-330)
chain: MADIIARLREDGIQKRVIQEGRGELPDFQDGTKATFHYRTLHSDDEGTVLDDSRARGKPMELIIGKKFKLPVWETIVCTMREGEIAQFLCDIKHVVLYPLVAKSLRNIAVGKDPLEGQRHCCGVAQMREHSSLGHADLDALQQNPQPLIFHMEMLKVESPGTYQQDPWAMTDEEKAKAVPLIHQEGNRLYREGHVKEAAAKYYDAIACLKNLQMKEQPGSPEWIQLDQQITPLLLNYCQCKLVVEEYYEVLDHCSSILNKYDDNVKAYFKRGKAHAAVWNAQEAQADFAKVLELDPALAPVVSRELRALEARIRQKDEEDKARFRGIFSH

binding (FLAG-BirA*-GEMC1 (human)): binds
B2: DNTTIP1 (protein, UniProt Q9H147 1-329)
chain: MGATGDAEQPRGPSGAERGGLELGDAGAAGQLVLTNPWNIMIKHRQVQRRGRRSQMTTSFTDPAISMDLLRAVLQPSINEEIQTVFNKYMKFFQKAALNVRDNVGEEVDAEQLIQEACRSCLEQAKLLFSDGEKVIPRLTHELPGIKRGRQAEEECAHRGSPLPKKRKGRPPGHILSSDRAAAGMVWKPKSCEPIRREGPKWDPARLNESTTFVLGSRANKALGMGGTRGRIYIKHPHLFKYAADPQDKHWLAEQHHMRATGGKMAYLLIEEDIRDLAASDDYRGCLDLKLEELKSFVLPSWMVEKMRKYMETLRTENEHRAVEAPPQT

binding [1]: binds
B3: CDT1 (protein, UniProt Q9H211 1-546)
chain: MEQRRVTDFFARRRPGPPRIAPPKLACRTPSPARPALRAPASATSGSRKRARPPAAPGRDQARPPARRRLRLSVDEVSSPSTPEAPDIPACPSPGQKIKKSTPAAGQPPHLTSAQDQDTISELASCLQRARELGARVRALKASAQDAGESCTPEAEGRPEEPCGEKAPAYQRFHALAQPGLPGLVLPYKYQVLAEMFRSMDTIVGMLHNRSETPTFAKVQRGVQDMMRRRFEECNVGQIKTVYPASYRFRQERSVPTFKDGTRRSDYQLTIEPLLEQEADGAAPQLTASRLLQRRQIFSQKLVEHVKEHHKAFLASLSPAMVVPEDQLTRWHPRFNVDEVPDIEPAALPQPPATEKLTTAQEVLARARNLISPRMEKALSQLALRSAAPSSPGSPRPALPATPPATPPAASPSALKGVSQDLLERIRAKEAQKQLAQMTRCPEQEQRLQRLERLPELARVLRSVFVSERKPALSMEVACARMVGSCCTIMSPGEMEKHLLLLSELLPDWLSLHRIRTDTYVKLDKAADLAHITARLAHQTRAEEGL

binding (FLAG-BirA*-GEMC1 (human)): binds | binding [1]: binds
B4: DP-2 (TFDP2) (protein, UniProt Q14188 1-446)
chain: MTAKNVGLTSTNAEVRGFIDQNLSPTKGNISFVAFPVSNTNSPTKILPKTLGPINVNVGPQMIISTPQRLTSSGSVLIGSPYTPAPAMVTQTHIAEATGWVPGDRKRARKFIDSDFSESKRSKKGDKNGKGLRHFSMKVCEKVQRKGTTSYNEVADELVSEFTNSNNHLAADSAYDQKNIRRRVYDALNVLMAMNIISKEKKEIKWIGLPTNSAQECQNLEIEKQRRIERIKQKRAQLQELLLQQIAFKNLVQRNRQNEQQNQGPPALNSTIQLPFIIINTSRKTVIDCSISSDKFEYLFNFDNTFEIHDDIEVLKRMGMSFGLESGKCSLEDLKLAKSLVPKALEGYITDISTGPSWLNQGLLLNSTQSVSNLDLTTGATLPQSSVNQGLCLDAEVALATGQFLAPNSHQSSSAASHCSESRGETPCSFNDEDEEDDEEDSSSPE

binding (FLAG-BirA*-GEMC1 (human)): binds
B5: ELMSAN1/MIDEAS (protein, UniProt Q6PJG2 1-1045)
chain: MNLQAQPKAQNKRKRCLFGGQEPAPKEQPPPLQPPQQSIRVKEEQYLGHEGPGGAVSTSQPVELPPPSSLALLNSVVYGPERTSAAMLSQQVASVKWPNSVMAPGRGPERGGGGGVSDSSWQQQPGQPPPHSTWNCHSLSLYSATKGSPHPGVGVPTYYNHPEALKREKAGGPQLDRYVRPMMPQKVQLEVGRPQAPLNSFHAAKKPPNQSLPLQPFQLAFGHQVNRQVFRQGPPPPNPVAAFPPQKQQQQQQPQQQQQQQQAALPQMPLFENFYSMPQQPSQQPQDFGLQPAGPLGQSHLAHHSMAPYPFPPNPDMNPELRKALLQDSAPQPALPQVQIPFPRRSRRLSKEGILPPSALDGAGTQPGQEATGNLFLHHWPLQQPPPGSLGQPHPEALGFPLELRESQLLPDGERLAPNGREREAPAMGSEEGMRAVSTGDCGQVLRGGVIQSTRRRRRASQEANLLTLAQKAVELASLQNAKDGSGSEEKRKSVLASTTKCGVEFSEPSLATKRAREDSGMVPLIIPVSVPVRTVDPTEAAQAGGLDEDGKGPEQNPAEHKPSVIVTRRRSTRIPGTDAQAQAEDMNVKLEGEPSVRKPKQRPRPEPLIIPTKAGTFIAPPVYSNITPYQSHLRSPVRLADHPSERSFELPPYTPPPILSPVREGSGLYFNAIISTSTIPAPPPITPKSAHRTLLRTNSAEVTPPVLSVMGEATPVSIEPRINVGSRFQAEIPLMRDRALAAADPHKADLVWQPWEDLESSREKQRQVEDLLTAACSSIFPGAGTNQELALHCLHESRGDILETLNKLLLKKPLRPHNHPLATYHYTGSDQWKMAERKLFNKGIAIYKKDFFLVQKLIQTKTVAQCVEFYYTYKKQVKIGRNGTLTFGDVDTSDEKSAQEEVEVDIKTSQKFPRVPLPRRESPSEERLEPKREVKEPRKEGEEEVPEIQEKEEQEEGRERSRRAAAVKATQTLQANESASDILILRSHESNAPGSAGGQASEKPREGTGKSRRALPFSEKKKKTETFSKTQNQENTFPCKKCGR

binding (FLAG-BirA*-GEMC1 (human)): binds
B6: Geminin (protein, UniProt O75496 1-209)
chain: MNPSMKQKQEEIKENIKNSSVPRRTLKMIQPSASGSLVGRENELSAGLSKRKHRNDHLTSTTSSPGVIVPESSENKNLGGVTQESFDLMIKENPSSQYWKEVAEKRRKALYEALKENEKLHKEIEQKDNEIARLKKENKELAEVAEHVQYMAELIERLNGEPLDNFESLDNQEFDSEEETVEDSLVEDSEIGTCAEGTVSSSTDAKPCI

— article PMC10023806
